Experimental findings from US20200157147A1 (SEOUL NATIONAL UNIVERSITY HOSPITAL, published 2020) are described below.

Protein sequences, listed by entry. Tags and fused reporters are not part of them. Residues count along the entry.
UniProt Q9HD89, residues 19-108: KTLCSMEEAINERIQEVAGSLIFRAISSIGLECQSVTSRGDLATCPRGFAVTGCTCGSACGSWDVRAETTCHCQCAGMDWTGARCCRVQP

Results are given in words; binding and its absence hold for the method and conditions named. In cells and extracts the contact can be indirect. Some entries that bind do so weakly or less than the wild type.

The experiment deals with mFc-hResistin (human) (UniProt Q9HD89). Nature of the experiment: competition in the Fc-bead pull-down from THP-1 lysate: the peptide blocks CAP1 from mFc-hResistin; western blot with a-CAP1(M30). Background: In western blotting, separated proteins are transferred to a membrane and probed.

B1: pro2A (peptide of SEQ ID NO: 5) (peptide)
peptide: PPPPGAAAAAVSTSSGSDES
Consider B1, for which the binding entry is “binds”.

B2: pep10 (peptide of SEQ ID NO: 1) (peptide)
peptide: GPPPPPVSTS
With B2, the binding entry is given as “binds”.
